One test concerns the target NUDC (human) (UniProt Q9Y266). Kind of test: affinity purification with mass spectrometry; SF-TAP-tagged bait overexpressed in HEK293T; lysis in 0.5% NP-40 in TBS (30 mM Tris-HCl pH 7.4, 150 mM NaCl); two steps at 4 °C: Strep-Tactin superflow (desthiobiotin elution), then anti-FLAG M2 agarose (FLAG peptide elution); LC-MS/MS; interactions scored by socioaffinity.
Test [1] has as its target ciliogenesis transcription factor FOXJ1 (human) (UniProt Q92949). The test can be described thus: affinity purification with mass spectrometry; SF-TAP of tagged baits overexpressed in HEK293T (Strep-Tactin, then anti-FLAG M2 agarose, FLAG peptide elution; lysis 0.5% NP-40 in TBS, 4 °C); LC-MS/MS; interactions scored by socioaffinity (spoke and matrix evidence), FDR/FPR≤0.1.

Chains of the proteins cited; added tags and fusions are not shown.
UniProt Q9Y266: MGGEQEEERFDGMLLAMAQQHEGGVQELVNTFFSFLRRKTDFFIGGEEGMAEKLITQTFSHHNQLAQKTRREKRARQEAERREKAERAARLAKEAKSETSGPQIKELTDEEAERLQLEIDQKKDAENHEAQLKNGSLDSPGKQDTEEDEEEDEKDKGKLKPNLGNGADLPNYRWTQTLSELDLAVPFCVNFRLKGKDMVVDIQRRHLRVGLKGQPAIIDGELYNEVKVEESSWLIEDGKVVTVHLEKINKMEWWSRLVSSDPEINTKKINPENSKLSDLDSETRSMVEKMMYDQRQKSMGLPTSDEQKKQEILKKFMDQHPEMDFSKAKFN
UniProt Q92949: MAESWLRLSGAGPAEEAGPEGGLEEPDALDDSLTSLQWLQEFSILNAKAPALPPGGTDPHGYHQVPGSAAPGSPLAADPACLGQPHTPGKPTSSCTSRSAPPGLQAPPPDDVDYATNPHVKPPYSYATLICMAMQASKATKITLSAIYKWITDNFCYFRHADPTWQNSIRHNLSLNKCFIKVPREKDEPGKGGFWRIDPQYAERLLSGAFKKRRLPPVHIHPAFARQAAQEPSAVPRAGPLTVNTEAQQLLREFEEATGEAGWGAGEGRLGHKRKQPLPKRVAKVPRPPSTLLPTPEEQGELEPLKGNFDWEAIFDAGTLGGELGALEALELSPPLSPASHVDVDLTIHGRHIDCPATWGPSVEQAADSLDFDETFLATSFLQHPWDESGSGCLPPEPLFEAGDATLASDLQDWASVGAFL
UniProt Q15599: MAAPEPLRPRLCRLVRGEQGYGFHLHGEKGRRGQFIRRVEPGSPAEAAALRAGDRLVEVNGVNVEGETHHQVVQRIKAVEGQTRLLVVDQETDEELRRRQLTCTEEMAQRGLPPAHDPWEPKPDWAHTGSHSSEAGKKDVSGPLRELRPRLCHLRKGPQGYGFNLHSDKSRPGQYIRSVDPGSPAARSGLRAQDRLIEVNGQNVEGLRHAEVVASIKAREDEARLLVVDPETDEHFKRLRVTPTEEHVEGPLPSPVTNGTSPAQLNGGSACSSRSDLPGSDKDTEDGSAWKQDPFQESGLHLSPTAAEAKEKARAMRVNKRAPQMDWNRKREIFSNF
UniProt P32780: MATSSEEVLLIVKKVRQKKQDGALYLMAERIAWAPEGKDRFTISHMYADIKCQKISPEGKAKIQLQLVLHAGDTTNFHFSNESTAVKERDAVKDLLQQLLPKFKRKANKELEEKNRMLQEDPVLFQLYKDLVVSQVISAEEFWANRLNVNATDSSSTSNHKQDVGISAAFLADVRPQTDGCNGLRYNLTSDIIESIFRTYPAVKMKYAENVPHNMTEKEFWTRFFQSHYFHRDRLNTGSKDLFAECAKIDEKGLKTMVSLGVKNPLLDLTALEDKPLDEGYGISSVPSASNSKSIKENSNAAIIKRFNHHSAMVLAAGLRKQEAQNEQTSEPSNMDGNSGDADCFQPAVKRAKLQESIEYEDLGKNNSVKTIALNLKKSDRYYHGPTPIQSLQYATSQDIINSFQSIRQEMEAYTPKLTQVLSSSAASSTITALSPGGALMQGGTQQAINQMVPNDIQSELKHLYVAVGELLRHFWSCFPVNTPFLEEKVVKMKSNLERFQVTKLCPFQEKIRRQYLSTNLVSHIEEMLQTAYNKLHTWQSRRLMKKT
UniProt P25685: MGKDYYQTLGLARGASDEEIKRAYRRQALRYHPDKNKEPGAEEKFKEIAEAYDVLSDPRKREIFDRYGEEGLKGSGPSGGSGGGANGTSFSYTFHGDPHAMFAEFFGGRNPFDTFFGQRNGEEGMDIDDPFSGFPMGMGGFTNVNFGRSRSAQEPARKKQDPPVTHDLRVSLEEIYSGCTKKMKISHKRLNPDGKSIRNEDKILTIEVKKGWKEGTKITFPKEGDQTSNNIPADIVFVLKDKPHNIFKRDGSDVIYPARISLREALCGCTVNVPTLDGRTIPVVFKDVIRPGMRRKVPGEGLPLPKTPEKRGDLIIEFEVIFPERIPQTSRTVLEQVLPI
UniProt Q9UDY4: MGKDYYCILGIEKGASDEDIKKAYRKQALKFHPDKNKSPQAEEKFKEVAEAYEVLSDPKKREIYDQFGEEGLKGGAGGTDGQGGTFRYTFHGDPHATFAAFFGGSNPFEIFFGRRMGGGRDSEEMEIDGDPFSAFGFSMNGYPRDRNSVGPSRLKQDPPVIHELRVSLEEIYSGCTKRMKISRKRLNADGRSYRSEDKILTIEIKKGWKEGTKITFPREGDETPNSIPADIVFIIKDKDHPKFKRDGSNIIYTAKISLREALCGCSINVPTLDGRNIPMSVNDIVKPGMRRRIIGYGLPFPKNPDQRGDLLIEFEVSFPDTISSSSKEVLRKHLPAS
UniProt P53350: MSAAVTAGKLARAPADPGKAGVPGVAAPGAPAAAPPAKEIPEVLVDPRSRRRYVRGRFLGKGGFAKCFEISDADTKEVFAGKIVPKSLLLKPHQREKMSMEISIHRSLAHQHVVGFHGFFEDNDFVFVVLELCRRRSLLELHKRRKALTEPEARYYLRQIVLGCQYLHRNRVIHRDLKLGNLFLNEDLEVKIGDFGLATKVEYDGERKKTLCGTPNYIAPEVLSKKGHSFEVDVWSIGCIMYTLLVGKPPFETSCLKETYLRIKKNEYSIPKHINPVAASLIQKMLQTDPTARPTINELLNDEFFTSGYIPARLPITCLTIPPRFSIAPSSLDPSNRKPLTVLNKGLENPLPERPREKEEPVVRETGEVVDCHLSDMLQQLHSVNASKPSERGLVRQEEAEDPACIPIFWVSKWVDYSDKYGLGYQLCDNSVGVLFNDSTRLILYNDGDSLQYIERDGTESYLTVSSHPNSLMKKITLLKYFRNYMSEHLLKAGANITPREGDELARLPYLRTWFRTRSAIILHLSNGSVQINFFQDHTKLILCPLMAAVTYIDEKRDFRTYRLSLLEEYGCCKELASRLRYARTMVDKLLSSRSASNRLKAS
UniProt P46937: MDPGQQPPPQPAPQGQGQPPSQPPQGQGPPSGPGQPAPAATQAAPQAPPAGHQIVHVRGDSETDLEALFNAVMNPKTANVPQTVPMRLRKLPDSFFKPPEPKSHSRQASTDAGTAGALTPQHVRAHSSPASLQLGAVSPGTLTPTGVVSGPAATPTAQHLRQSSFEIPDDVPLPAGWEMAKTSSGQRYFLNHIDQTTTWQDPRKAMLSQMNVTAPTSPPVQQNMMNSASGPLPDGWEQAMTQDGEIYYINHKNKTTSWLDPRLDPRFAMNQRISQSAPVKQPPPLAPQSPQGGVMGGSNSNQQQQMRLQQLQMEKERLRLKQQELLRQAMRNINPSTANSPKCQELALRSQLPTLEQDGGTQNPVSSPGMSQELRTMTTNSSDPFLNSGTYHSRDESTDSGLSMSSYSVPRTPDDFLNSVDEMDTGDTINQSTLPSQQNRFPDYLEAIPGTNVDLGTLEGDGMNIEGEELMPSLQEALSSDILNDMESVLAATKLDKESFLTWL
UniProt O75147: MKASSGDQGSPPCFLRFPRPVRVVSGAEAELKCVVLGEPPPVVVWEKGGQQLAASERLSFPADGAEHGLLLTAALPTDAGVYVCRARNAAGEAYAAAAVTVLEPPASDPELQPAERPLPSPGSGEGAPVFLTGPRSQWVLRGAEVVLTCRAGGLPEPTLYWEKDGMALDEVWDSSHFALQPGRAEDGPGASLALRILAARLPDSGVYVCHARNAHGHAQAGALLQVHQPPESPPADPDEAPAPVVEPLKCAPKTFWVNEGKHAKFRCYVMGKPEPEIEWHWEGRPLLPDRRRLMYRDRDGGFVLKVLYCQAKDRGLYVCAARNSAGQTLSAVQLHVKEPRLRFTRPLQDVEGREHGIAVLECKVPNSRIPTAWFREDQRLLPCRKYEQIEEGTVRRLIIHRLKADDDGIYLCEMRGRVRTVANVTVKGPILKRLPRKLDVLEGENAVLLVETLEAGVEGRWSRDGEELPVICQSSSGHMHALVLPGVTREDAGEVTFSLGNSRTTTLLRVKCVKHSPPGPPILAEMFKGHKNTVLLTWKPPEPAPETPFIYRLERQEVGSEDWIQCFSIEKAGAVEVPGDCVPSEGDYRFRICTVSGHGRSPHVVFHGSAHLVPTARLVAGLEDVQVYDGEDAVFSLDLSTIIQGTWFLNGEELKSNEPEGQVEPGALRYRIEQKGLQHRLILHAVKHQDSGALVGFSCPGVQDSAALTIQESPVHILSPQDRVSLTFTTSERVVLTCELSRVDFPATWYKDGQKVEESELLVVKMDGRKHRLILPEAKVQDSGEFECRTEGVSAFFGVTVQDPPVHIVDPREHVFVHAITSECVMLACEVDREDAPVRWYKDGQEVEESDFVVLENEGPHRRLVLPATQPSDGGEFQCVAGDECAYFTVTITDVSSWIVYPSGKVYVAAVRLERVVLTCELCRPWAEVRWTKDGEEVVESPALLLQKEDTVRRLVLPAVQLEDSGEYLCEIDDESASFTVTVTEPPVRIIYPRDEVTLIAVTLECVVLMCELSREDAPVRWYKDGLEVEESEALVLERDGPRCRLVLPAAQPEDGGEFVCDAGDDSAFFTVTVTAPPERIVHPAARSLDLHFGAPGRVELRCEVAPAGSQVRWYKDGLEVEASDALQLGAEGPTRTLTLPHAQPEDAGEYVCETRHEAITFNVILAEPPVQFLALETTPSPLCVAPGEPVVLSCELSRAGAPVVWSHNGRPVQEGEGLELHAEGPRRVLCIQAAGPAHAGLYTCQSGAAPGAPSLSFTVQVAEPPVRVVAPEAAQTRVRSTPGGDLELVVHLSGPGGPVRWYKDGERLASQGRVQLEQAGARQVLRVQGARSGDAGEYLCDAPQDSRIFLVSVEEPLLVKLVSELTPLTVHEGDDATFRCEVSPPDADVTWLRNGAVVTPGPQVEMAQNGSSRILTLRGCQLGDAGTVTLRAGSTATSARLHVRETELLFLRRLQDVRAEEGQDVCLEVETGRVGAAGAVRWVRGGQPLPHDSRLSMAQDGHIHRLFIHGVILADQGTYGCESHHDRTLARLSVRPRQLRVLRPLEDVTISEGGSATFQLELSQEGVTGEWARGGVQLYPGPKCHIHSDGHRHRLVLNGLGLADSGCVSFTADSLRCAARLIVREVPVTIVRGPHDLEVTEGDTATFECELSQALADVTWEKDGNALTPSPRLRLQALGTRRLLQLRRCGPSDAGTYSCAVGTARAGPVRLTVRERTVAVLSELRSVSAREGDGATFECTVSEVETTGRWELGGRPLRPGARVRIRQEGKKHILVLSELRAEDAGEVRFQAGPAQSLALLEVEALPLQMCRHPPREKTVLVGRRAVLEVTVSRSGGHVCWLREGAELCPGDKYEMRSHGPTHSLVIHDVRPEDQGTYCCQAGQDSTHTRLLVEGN

For a further test, the target named is SLC9A3R2 (human) (UniProt Q15599). The description is as above.
The target in a further test is T1, ANKS3 (human) (UniProt Q6ZW76).
T1 sequence: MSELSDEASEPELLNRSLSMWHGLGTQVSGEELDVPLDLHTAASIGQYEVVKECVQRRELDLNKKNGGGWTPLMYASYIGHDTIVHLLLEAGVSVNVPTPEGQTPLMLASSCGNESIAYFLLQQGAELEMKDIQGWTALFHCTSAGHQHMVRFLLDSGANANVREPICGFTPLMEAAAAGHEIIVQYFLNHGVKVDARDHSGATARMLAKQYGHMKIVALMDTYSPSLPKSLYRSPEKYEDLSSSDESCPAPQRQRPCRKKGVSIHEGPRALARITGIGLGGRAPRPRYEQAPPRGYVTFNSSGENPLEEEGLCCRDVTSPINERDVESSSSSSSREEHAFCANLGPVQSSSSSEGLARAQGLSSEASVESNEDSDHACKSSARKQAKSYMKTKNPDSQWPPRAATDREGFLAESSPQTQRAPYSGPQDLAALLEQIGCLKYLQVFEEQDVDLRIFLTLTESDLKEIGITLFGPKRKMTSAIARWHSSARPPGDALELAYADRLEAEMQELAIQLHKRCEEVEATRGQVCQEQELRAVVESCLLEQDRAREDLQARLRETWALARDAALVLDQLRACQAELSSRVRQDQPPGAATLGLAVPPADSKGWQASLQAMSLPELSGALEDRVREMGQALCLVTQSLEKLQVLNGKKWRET
The test can be described thus: affinity purification with mass spectrometry; SF-TAP-tagged bait overexpressed in HEK293T; lysis in 0.5% NP-40 in TBS (30 mM Tris-HCl pH 7.4, 150 mM NaCl); two steps at 4 °C: Strep-Tactin superflow (desthiobiotin elution), then anti-FLAG M2 agarose (FLAG peptide elution); LC-MS/MS; interactions scored by socioaffinity.

The next test has as its target T2, DNAAF1 (human) (UniProt Q8NEP3).
T2 sequence: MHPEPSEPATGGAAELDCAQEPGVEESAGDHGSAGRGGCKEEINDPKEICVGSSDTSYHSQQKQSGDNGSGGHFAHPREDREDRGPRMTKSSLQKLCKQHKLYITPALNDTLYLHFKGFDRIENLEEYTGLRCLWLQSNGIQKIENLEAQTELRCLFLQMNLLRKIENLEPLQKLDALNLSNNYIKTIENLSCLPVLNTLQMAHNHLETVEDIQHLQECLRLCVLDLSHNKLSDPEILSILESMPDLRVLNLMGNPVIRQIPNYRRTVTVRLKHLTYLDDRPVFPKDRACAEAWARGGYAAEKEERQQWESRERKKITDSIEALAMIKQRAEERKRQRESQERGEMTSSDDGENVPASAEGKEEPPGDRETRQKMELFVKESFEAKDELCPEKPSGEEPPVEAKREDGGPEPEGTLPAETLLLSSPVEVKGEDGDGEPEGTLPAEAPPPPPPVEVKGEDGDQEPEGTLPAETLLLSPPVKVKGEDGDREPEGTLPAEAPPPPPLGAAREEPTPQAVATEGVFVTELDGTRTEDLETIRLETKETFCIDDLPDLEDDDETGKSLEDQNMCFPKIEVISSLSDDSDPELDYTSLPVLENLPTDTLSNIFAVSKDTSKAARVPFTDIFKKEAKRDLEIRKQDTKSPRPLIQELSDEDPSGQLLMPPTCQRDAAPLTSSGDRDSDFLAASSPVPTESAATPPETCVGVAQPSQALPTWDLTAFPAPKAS
The test is described as above.

A further test deals with T3, FAM161A (human) (UniProt Q3B820).
T3 sequence: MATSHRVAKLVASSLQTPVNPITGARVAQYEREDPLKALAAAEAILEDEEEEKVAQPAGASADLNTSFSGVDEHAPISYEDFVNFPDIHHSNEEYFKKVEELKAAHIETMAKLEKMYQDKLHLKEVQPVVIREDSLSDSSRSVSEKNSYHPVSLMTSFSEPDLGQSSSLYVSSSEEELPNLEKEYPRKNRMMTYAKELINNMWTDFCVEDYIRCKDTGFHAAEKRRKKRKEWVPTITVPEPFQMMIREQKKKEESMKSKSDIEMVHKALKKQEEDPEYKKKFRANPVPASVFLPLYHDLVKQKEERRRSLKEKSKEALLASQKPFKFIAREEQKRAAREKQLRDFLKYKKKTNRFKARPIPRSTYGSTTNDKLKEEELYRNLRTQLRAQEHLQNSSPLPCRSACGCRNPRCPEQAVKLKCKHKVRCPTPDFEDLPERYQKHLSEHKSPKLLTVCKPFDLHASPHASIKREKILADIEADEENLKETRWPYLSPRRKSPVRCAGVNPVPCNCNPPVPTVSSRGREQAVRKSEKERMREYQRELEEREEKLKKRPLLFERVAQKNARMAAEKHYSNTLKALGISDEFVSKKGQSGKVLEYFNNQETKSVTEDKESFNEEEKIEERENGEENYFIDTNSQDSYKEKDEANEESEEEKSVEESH
The test is described as above.

These are yes or no findings as the source states them, for the method shown. Binding seen in cells or lysates may run through a third protein. These calls come from enrichment with a bait or labelling near it, and not all partners need be listed.

As to GTF2H1 (from UniProt P32780 1-548), the binding result in the test with NUDC (human) is listed as “binds”.

With DNAJB1 (from UniProt P25685 1-340), the binding result with NUDC (human) is on record as “binds”.

DNAJB4 (from UniProt Q9UDY4 1-337): the binding entry with NUDC (human) was “binds”.

For “Polo-like kinase 1 (from UniProt P53350 1-603)”, the binding result in test [1] is given as “binds”.

As to YAP1 (from UniProt P46937 1-504), the binding entry in the test with SLC9A3R2 (human) is given as “binds”.

Consider OBSL1 (from UniProt O75147 1-1896), for which the binding result with ANKS3 (human), in the test with DNAAF1 (human) and with FAM161A (human) was “binds” in each case.
